No constants are given. Whether binding was seen depends on the method and setting. In cells and extracts the contact can be indirect. Some binding calls cover weakened binding; strength is not graded here.
How the values were obtained:
Halo-WDR76 (human) [1] = target: T1, Halo-WDR76 (human) (UniProt Q9H967); test: co-IP; HaloTag purification of Halo-WDR76 from whole cell lysate (Benzonase treated) of cells transiently transfected with CLIP-FLAG constructs, TEV elution; western blot with anti-FLAG; HEK293FRT as control
T1 sequence: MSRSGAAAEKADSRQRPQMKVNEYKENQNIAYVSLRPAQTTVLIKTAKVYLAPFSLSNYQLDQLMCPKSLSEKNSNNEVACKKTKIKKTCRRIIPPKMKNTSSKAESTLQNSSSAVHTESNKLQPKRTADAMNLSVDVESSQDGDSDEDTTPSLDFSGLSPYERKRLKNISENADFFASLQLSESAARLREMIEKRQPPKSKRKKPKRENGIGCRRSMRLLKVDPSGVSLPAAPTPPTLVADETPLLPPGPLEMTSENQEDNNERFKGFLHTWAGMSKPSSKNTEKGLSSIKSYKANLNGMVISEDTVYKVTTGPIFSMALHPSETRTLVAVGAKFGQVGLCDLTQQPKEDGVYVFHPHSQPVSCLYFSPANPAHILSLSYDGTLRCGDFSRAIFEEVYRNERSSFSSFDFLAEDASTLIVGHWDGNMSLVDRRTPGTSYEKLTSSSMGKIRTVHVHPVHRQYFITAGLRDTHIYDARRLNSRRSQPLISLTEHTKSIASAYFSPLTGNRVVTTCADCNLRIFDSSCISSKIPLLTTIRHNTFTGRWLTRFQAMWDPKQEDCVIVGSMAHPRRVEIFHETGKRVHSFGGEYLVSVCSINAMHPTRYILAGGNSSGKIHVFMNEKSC

Protein sequences, listed by entry. Tags and fused reporters are not part of them.
UniProt P83916: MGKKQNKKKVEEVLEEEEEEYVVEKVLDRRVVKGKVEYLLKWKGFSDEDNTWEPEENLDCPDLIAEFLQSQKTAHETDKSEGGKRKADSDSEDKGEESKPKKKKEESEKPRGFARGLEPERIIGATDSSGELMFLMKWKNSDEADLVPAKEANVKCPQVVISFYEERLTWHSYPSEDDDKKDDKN
UniProt Q13185: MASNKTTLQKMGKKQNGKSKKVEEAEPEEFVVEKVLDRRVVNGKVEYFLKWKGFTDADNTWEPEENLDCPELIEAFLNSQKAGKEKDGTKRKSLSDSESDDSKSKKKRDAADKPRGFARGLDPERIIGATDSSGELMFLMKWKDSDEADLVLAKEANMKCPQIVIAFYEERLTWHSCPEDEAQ
UniProt P45973: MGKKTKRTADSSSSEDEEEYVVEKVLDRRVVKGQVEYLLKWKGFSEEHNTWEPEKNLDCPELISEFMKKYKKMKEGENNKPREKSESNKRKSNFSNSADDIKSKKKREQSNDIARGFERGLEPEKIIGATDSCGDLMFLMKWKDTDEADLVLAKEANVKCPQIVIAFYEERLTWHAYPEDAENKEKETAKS
UniProt P09874: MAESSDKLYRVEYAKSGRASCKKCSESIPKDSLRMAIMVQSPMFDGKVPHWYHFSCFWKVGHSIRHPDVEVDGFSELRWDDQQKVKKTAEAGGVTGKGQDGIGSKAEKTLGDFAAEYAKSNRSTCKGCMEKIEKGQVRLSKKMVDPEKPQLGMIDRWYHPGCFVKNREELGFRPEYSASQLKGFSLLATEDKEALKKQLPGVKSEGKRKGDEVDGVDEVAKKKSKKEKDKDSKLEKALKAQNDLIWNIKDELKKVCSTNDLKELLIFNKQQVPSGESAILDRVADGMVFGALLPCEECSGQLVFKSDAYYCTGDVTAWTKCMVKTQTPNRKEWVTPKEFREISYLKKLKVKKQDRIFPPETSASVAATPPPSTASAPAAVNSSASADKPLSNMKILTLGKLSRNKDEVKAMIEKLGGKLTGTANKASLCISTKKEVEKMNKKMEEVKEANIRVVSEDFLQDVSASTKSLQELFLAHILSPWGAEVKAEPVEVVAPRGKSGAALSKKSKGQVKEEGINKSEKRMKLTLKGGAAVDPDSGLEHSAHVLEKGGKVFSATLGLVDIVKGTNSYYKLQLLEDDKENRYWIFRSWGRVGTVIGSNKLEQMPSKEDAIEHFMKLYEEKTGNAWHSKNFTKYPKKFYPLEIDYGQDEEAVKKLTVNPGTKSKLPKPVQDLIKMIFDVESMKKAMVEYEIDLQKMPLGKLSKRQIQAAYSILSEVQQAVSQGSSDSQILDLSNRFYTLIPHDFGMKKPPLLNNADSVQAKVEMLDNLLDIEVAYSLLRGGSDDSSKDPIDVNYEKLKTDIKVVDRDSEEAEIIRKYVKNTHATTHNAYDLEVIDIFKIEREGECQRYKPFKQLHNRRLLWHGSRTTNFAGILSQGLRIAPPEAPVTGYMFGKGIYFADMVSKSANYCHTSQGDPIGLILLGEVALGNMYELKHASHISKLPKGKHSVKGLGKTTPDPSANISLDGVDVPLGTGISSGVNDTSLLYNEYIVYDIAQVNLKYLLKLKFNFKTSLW
UniProt P13010: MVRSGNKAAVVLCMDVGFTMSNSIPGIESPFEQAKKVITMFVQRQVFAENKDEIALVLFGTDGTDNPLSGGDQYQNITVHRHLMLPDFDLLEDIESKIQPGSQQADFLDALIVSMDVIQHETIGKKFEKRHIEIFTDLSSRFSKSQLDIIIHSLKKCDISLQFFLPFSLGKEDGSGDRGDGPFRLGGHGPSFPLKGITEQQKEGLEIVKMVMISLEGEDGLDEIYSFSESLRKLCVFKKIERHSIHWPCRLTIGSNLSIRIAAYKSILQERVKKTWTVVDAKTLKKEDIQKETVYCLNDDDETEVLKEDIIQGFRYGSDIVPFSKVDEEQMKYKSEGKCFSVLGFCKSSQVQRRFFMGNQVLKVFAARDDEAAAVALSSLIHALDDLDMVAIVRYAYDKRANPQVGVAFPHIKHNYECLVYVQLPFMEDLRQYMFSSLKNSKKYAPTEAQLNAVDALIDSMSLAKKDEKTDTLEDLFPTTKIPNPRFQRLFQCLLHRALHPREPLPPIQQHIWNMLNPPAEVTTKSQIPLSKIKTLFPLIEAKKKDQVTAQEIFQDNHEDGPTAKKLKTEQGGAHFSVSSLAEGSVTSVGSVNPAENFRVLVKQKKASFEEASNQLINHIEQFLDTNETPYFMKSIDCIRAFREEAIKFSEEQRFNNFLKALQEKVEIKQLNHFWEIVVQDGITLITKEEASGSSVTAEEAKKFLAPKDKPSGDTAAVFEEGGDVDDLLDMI

Halo-WDR76 (human) [2] = target: T1, Halo-WDR76 (human); test: co-IP; HaloTag bead purification of Halo-WDR76 from whole cell lysate (Benzonase treated), overnight at 4°C, washes 1xTBS 0.05% IGEPAL CA-630, TEV elution; western blot for endogenous PARP1 and XRCC5; parental HEK293FRT as control

Substance | binding (Halo-WDR76 (human) [1]) | binding (Halo-WDR76 (human) [2])
CLIP-FLAG tagged CBX1 (from UniProt P83916 1-185) | binds | –
CLIP-FLAG tagged CBX3 (from UniProt Q13185 1-183) | binds | –
CLIP-FLAG tagged CBX5 (from UniProt P45973 1-191) | binds | –
PARP1 (from UniProt P09874 1-1014) | – | binds
XRCC5 (from UniProt P13010 1-732) | – | binds
